Data published in publication PMC11009956, “Initial Primer Synthesis of a DNA Primase Monitored by Real-Time NMR Spectroscopy” (Journal of the American Chemical Society, 2024).
For at least one entry, the source does not settle the construct or the ends of the probe. At least one verdict was read from the data and is not stated in words by the source. Where a protein sequence is shown, tags need not be part of it.

How the values were obtained:
[1] = target: T1, pRN1 primase (functional primase) (Sulfolobus islandicus (plasmid pRN1)) (UniProt Q54324); assay: NMR (1H-15N HSQC); settings: ATP + dGTP, 313 K; HBD titrations: 25 mM sodium phosphate pH 7.0, 75 mM NaCl, 10 mM MgCl2, 298 K, 0.1 mM HBD, HBD:DNA 1:1.1; solid-state NMR on sedimented complex at 278-309 K; recombinant protein; residues 40-370; single-stranded DNA
T1 sequence (looked up): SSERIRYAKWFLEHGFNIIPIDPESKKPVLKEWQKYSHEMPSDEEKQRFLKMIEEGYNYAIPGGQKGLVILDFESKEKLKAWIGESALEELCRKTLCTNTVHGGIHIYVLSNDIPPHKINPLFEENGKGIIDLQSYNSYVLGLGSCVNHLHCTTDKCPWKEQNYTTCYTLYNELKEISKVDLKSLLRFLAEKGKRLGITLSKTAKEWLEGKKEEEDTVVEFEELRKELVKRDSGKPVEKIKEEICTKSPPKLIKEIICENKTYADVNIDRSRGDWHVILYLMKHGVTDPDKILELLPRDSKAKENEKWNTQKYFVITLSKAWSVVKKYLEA

[2] = target: T2, pRN1 primase helix-bundle domain (HBD) (Sulfolobus islandicus (plasmid pRN1)) (UniProt Q54324); assay: NMR (1H-15N HSQC); settings: HBD titrations: 25 mM sodium phosphate pH 7.0, 75 mM NaCl, 10 mM MgCl2, 298 K, 0.1 mM HBD, HBD:DNA 1:1.1, solid-state NMR on sedimented complex at 278-309 K, recombinant protein, residues 256-370, single-stranded DNA
T2 sequence (looked up): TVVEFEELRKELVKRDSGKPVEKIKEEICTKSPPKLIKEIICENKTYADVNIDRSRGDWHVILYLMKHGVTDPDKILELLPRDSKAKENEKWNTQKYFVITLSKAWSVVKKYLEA

Measured: binding result

CTGTGCTCA [DNACT (GTG-motif template)]
binds: [1] | [2]; 2 ATP, 10 mM Mg2+, 298 K | [2]; ATP + GTP, 10 mM Mg2+, 298 K | [2]; ATP + GppCH2p (GTPC), 10 mM Mg2+, 298 K | [2]; ATP + GppNHp (GTPN), 10 mM Mg2+, 298 K | [2]; ATPC + dGTPC
